Source: PubChem BioAssay AID504467 (National Center for Advancing Translational Sciences (NCATS), 2011)
In all, about 330,000 compounds went through this assay and about 7,700 (2.3%) were called active. Inconclusive results, whose numbers are uncertain, are shown with a selection of clear calls. Calls follow the shape of the dose curve; as a rule, active = well fitted inhibition curve with a large enough effect; inconclusive = small, poorly fitted or top-dose-only effect, or effect the other way; inactive = flat fitted curve, though single readings scatter. Where the call is inconclusive, the potency comes from a doubtful curve fit.

Assay: qHTS screen for small molecules that inhibit ELG1-dependent DNA repair in human embryonic kidney (HEK293T) cells expressing luciferase-tagged ELG1; also: nearly all actives have a fitted effect of over 55% in size
Conditions: HEK293T ELG1-luciferase reporter, luminescence, 16 h, DNA damage induced by 5-fluorouridine; activity change, negative = inhibition: at 46.1 µM (top of the series)
Summary of the method: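 Cells (2,000 per well) received 5-fluorouridine plus test compound or DMSO and were incubated 16 hr at 37 °C, 5% CO2. Luciferase activity was read by luminescence 30 min after ONE-Glo addition; signal suppression marked inhibition of damage-induced ELG1 function.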
% is scaled to controls: 0 for no effect and ±100 for the full control effect; potency is read from the fitted curve at half-maximal effect.

With `N#Cc1ccc(OCC(O)CN2CCN(CC(O)COc3ccc(C#N)cc3)CC2)cc1` (stereo unspecified) as the compound, how does the Potency read?
Its Potency is inconclusive: 8.2 µM [inhibitor, partial curve].

For `CC(OC(=O)C1=COCCO1)C(=O)Nc1ccc(Oc2ccccc2)cc1` (stereo unspecified), which “activity change, negative = inhibition” value is on record?
Its value is inactive: 16.6%.

Which Potency does the source give for `Nc1c(C(=O)O)cnc2c(-c3ccc(Cl)cc3)cnn12` here?
Its Potency is inconclusive: 5.8 µM [activator, partial curve].

Which “activity change, negative = inhibition” value does the source give for `CC(C)(C)c1ccc(NC(=O)CON=C(N)c2ccccc2)cc1` here?
Its value is inactive: 10.3%.

For `N#Cc1ccccc1NC(=S)NC(=O)c1cccs1`, which Potency is on record?
Its Potency is inconclusive: 13 µM [activator, partial curve].

Which Potency does the source give for `CN(C)/C=C/c1oc2ccc(O)cc2c1[N+](=O)[O-]` here?
The Potency was inconclusive: 14.6 µM [activator, partial curve].

With `CC(OC(=O)c1nsc(Cl)c1Cl)C(=O)NC1CCCCC1` (stereo unspecified) as the compound, how does the Potency read?
The Potency was inconclusive: 2.06 µM [inhibitor, partial curve, poor fit].

For `COc1ccccc1-c1noc(-c2ccccc2)n1`, which Potency is on record?
The Potency was inconclusive: 7.31 µM [activator, partial curve].

With `CCc1ccc2[nH]c3nc(C)cc(C)c3c(=O)c2c1` as the compound, how does the Potency read?
The Potency was inconclusive: 8.2 µM [activator, partial curve].

With `CC(C)(C)OC(=O)NCCCCCNC(=O)c1[nH]cnc1C(=O)N[C@@H](Cc1ccccc1)C(=O)OCc1ccccc1` as the compound, how does the “activity change, negative = inhibition” value read?
The value was inactive: 1.28%.

For `Cc1ccc(NC(=O)c2ccc(-c3nn(C)c(=O)c4ccccc34)cc2)cc1`, which Potency is on record?
The Potency was inconclusive: 29.1 µM [inhibitor, single point].

Which Potency does the source give for `CCC(C)NC(=O)CSc1nc2ccccc2c(=O)n1Cc1ccc(OC)cc1` (stereo unspecified) here?
The Potency was inconclusive: 18.4 µM [inhibitor, single point].

For `Cc1ccc(-c2nn(-c3ccccc3)cc2/C=C/C(=O)Nc2cccc(S(N)(=O)=O)c2)cc1`, which Potency is on record?
The Potency was inconclusive: 23.1 µM [inhibitor, single point].

With `COc1cc(/C=N/NC(=O)c2cncc(Br)c2)cc([N+](=O)[O-])c1O` as the compound, how does the Potency read?
Its Potency is inconclusive: 20.6 µM [inhibitor, partial curve].

With `CC1CCN(CCc2nc3cc(NC(=O)COc4ccc([N+](=O)[O-])cc4)ccc3n2C)CC1` as the compound, how does the “activity change, negative = inhibition” value read?
Its value is inactive: -15.6%.

With `NS(=O)(=O)c1ccc(CCNC(=O)CNC(=O)c2ccccc2F)cc1` as the compound, how does the “activity change, negative = inhibition” value read?
The value was inactive: 15.1%.

Which “activity change, negative = inhibition” value does the source give for `COc1cccc(Cn2c(=S)[nH]c3ccc(N4CCOCC4)cc3c2=O)c1` here?
Its value is inactive: -6.11%.

Which Potency does the source give for `c1ccc(CN2CCC(N3CCN(Cc4ccc5c(c4)OCO5)CC3)CC2)cc1` here?
Its Potency is inconclusive: 8.2 µM [inhibitor, partial curve].

Which Potency does the source give for `O=C(Nc1cccc(S(=O)(=O)N2CCOCC2)c1)c1ccc(Cl)nc1` here?
Its Potency is inconclusive: 23.1 µM [inhibitor, single point].

Which “activity change, negative = inhibition” value does the source give for `Cc1cccc(C)c1NC(=O)CNC(=O)c1cccc(S(=O)(=O)NCc2cccs2)c1` here?
Its value is inactive: 10.8%.

With `COc1cccc(CN(C)S(=O)(=O)c2ccccc2Br)c1` as the compound, how does the “activity change, negative = inhibition” value read?
The value was inactive: 2.11%.

For `Cc1ccc(C2=NS(=O)(=O)N(C)C(C(=O)Nc3cc(C)n(CC(=O)N4CCC(C)CC4)n3)=C2)cc1`, which “activity change, negative = inhibition” value is on record?
Its value is inactive: 8.13%.

Which Potency does the source give for `COC(=O)c1ccc(COc2ccccc2[N+](=O)[O-])o1` here?
Its Potency is inconclusive: 23.1 µM [activator, single point].

Which Potency does the source give for `O=C(N/N=C/c1ccc(-c2cccc([N+](=O)[O-])c2)o1)c1ccc([N+](=O)[O-])cc1` here?
Its Potency is inconclusive: 18.3 µM [inhibitor, single point].

For `CC(C)/C=N/NC(=O)c1cccc(N2CCCC2=O)c1`, which Potency is on record?
Its Potency is inconclusive: 16.4 µM [activator, single point].

For `CCOC(=O)C(Cc1ccccc1)C(=O)Nc1ccc(NC(=O)C(Cc2ccccc2)C(=O)OCC)cc1` (stereo unspecified), which Potency is on record?
The Potency was inconclusive: 23.1 µM [activator, partial curve, poor fit].

With `CCN(CC(=O)NCc1cccs1)S(=O)(=O)c1ccc(C(C)C)cc1` as the compound, how does the “activity change, negative = inhibition” value read?
The value was inactive: -1.61%.

Which Potency does the source give for `CCCNC(=S)Nc1ccc(Cl)cc1Cl` here?
Its Potency is inconclusive: 18.4 µM [activator, single point].

Which Potency does the source give for `CCN(CC)S(=O)(=O)c1ccc(N2CC(C(=O)NCc3ccc4c(c3)OCO4)CC2=O)cc1` (stereo unspecified) here?
Its Potency is inconclusive: 20 µM [inhibitor, partial curve, poor fit].

Which Potency does the source give for `CN(C)CCCN(C(=O)COc1ccccc1)c1nc2cc3c(cc2s1)OCCO3` here?
The Potency was inconclusive: 16.4 µM [activator, single point].

Which Potency does the source give for `O=c1[nH]n(CC2COC3(CCCCC3)O2)c(=O)c2ccccc12` (stereo unspecified) here?
Its Potency is inconclusive: 35.5 µM [activator, single point].

With `CC(=O)O[C@@H]1[C@H]2[C@@H](C[C@@H](C)[C@@H]3C=CC(=O)[C@@]13C)OC(=O)[C@@H]2C` as the compound, how does the “activity change, negative = inhibition” value read?
Its value is inactive: -6.56%.

For `CC(=O)N1CCN(c2ccc(NC(=O)c3ccc(Br)o3)cc2Cl)CC1`, which Potency is on record?
Its Potency is inconclusive: 18.3 µM [inhibitor, single point].

With `CCC(C(=O)Nc1nc(C)c(C(=O)OC)s1)c1ccccc1` (stereo unspecified) as the compound, how does the Potency read?
The Potency was inconclusive: 10.3 µM [inhibitor, partial curve].

For `Cc1ccc(CNC(=O)c2ccc(OCC(C)C)cc2)n1C`, which “activity change, negative = inhibition” value is on record?
The value was inactive: 6.13%.

For `COc1ccc(NC(=O)/C(C#N)=C\c2ccc(Br)o2)cc1`, which Potency is on record?
Its Potency is inconclusive: 29.1 µM [activator, single point].

For `C/C(=N\NC(=O)CSCc1ccccc1Cl)c1cccc(NC(=O)c2ccccc2)c1`, which Potency is on record?
Its Potency is inconclusive: 20.6 µM [inhibitor, single point].

With `CC1CC(C)CN(C(=O)c2cccc(S(=O)(=O)Nc3cc(C(F)(F)F)ccc3Cl)c2)C1` (stereo unspecified) as the compound, how does the “activity change, negative = inhibition” value read?
The value was inactive: -5.94%.

With `COc1ccc(-c2nnn(-c3ccc(Cl)cc3Cl)c2N)cc1` as the compound, how does the “activity change, negative = inhibition” value read?
Its value is inactive: -15.6%.

Which “activity change, negative = inhibition” value does the source give for `COc1ccc(N(S(=O)(=O)c2ccccc2)S(=O)(=O)c2ccccc2)c(N)c1` here?
Its value is inactive: -25.8%.

Which Potency does the source give for `Fc1ccc2nc(Nc3nc4c(F)cc(F)cc4s3)sc2c1` here?
The Potency was inconclusive: 23.1 µM [activator, single point].

For `Cc1cccc2sc(NNC(=O)c3ccc4c(c3)OCCO4)nc12`, which “activity change, negative = inhibition” value is on record?
The value was inactive: 17.5%.

With `O=C(C[n+]1ccccc1)NNc1ccccc1` as the compound, how does the “activity change, negative = inhibition” value read?
Its value is inactive: -2.57%.

With `Cc1ccc(NC(=O)Nc2ccon2)cc1` as the compound, how does the Potency read?
The Potency was inconclusive: 23.1 µM [activator, partial curve].

With `O=C(Nc1ccn(-c2ccccc2)n1)c1ccccc1Br` as the compound, how does the Potency read?
The Potency was inconclusive: 18.4 µM [activator, partial curve].

Which Potency does the source give for `CCN(CC)CCN1C(=O)C(=O)/C(=C(/O)c2ccc(OC)cc2)C1c1ccco1` (stereo unspecified) here?
Its Potency is inconclusive: 32.6 µM [activator, single point].

Which Potency does the source give for `Cc1cccc(NC(=O)Nc2ccc3c(c2)OCO3)n1` here?
Its Potency is inconclusive: 9.2 µM [activator, partial curve].

For `COc1ccc(-c2ocnc2C(=O)N2CCN(C(c3ccccc3)c3ccccc3)CC2)cc1`, which Potency is on record?
The Potency was inconclusive: 29.1 µM [inhibitor, single point].

Which “activity change, negative = inhibition” value does the source give for `Cc1c(CC(=O)N[C@@H](C)C(=O)O)c(=O)oc2cc3occ(-c4ccccc4)c3cc12` here?
Its value is inactive: 18.2%.

Which “activity change, negative = inhibition” value does the source give for `Cc1ccccc1COC(=O)CCC1=NS(=O)(=O)c2ccccc2N1` here?
The value was inactive: 0.749%.

For `COc1cc(C(=O)Nc2cccc(S(=O)(=O)N3CCCC3)c2)c([N+](=O)[O-])cc1OC`, which “activity change, negative = inhibition” value is on record?
The value was inactive: -20.6%.

For `O=C(CSc1ncc(C(F)(F)F)cc1Cl)N1CCN(S(=O)(=O)c2ccc3ccccc3c2)CC1`, which Potency is on record?
Its Potency is inconclusive: 29.1 µM [inhibitor, single point].

Which Potency does the source give for `CCN(CC)C(=O)c1ccc2c(c1[N+](=O)[O-])C(=O)c1ccccc1C2=O` here?
Its Potency is inconclusive: 4.11 µM [activator, full curve].

With `Cc1ccc(Cl)cc1N1CCN(C(=O)Cn2ccc3ccccc3c2=O)CC1` as the compound, how does the Potency read?
The Potency was inconclusive: 14.6 µM [inhibitor, single point].

For `Cc1nc2oc3c(NCc4ccccn4)ncnc3c2c2c1COC(C)(C)C2`, which Potency is on record?
Its Potency is inconclusive: 16.4 µM [inhibitor, single point].

Which “activity change, negative = inhibition” value does the source give for `CC(C)CNC(=S)N1CCN(C(c2ccccc2)c2ccccc2)CC1` here?
The value was inactive: -0.217%.

With `O=C(CNC(=O)c1ccccc1)NCC(O)c1ccc([N+](=O)[O-])cc1` (stereo unspecified) as the compound, how does the “activity change, negative = inhibition” value read?
Its value is inactive: -3.71%.

Which “activity change, negative = inhibition” value does the source give for `COc1ccccc1CNS(=O)(=O)c1cc(C)ccc1OC` here?
The value was inactive: 2.31%.

For `COc1ccc2c(c1)C(=O)N(c1ccccc1)C(=O)C2`, which Potency is on record?
Its Potency is inconclusive: 13 µM [activator, partial curve, poor fit].

For `CCS(=O)(=O)N1CCN(c2ncnc3sc(C)c(C)c23)CC1`, which Potency is on record?
Its Potency is inconclusive: 18.3 µM [inhibitor, single point].

With `O=C(Nc1ccccc1Cl)c1cc[n+]([O-])cc1` as the compound, how does the “activity change, negative = inhibition” value read?
The value was inactive: 22.7%.

With `C=CCNC(=O)CSc1nnc(-c2ccccn2)n1Cc1ccccc1` as the compound, how does the “activity change, negative = inhibition” value read?
The value was inactive: -11.2%.

With `COC(=O)C1=C(Nc2ccccc2NC(=O)CCCC(=O)O)CSC1` as the compound, how does the “activity change, negative = inhibition” value read?
Its value is inactive: 8.5%.

For `Cc1cc(S(=O)(=O)N2CCC3(CC2)OCCN3S(=O)(=O)c2cccs2)ccc1F`, which “activity change, negative = inhibition” value is on record?
Its value is inactive: -6.36%.

With `Cc1cccc(OCC(=O)N2CCC(c3ccccc3)C2)c1` (stereo unspecified) as the compound, how does the Potency read?
The Potency was inconclusive: 14.1 µM [activator, partial curve, poor fit].

For `Cc1ccc(NC(=O)C2Cc3ccccc3CN2C(=O)c2ccco2)cc1S(=O)(=O)N(C)C` (stereo unspecified), which Potency is on record?
Its Potency is inconclusive: 16.4 µM [activator, partial curve].

Which Potency does the source give for `NNC(=O)c1sccc1OCc1ccc(Cl)cc1Cl` here?
The Potency was inconclusive: 9.2 µM [inhibitor, partial curve].

Which Potency does the source give for `Cc1ccccc1CNC(=O)c1ccc(CSCc2ccccc2)cc1` here?
Its Potency is inconclusive: 2.06 µM [inhibitor, partial curve, poor fit].

For `NS(=O)(=O)c1ccc(CCNC(=O)C(=O)NCC2OCCN2S(=O)(=O)c2ccc(F)cc2)cc1` (stereo unspecified), which “activity change, negative = inhibition” value is on record?
Its value is inactive: 8.69%.

For `O=C(C1CCCCC1)N1CCc2ccccc21`, which Potency is on record?
The Potency was inconclusive: 32.6 µM [activator, partial curve, poor fit].

With `O=C(NCc1ccccn1)Nc1ccc(Br)cc1` as the compound, how does the Potency read?
Its Potency is inconclusive: 23.1 µM [activator, single point].
